Assay results published in publication PMC4546667.
Results are given in words; binding and its absence hold for the method and conditions named. Binding seen in cells or lysates may run through a third protein. Some entries that bind do so weakly or less than the wild type. Tags and fused reporters may be left off the sequences shown.

Amino acid sequences for entries named in this document (tags omitted). A change or cut given only in a name is not applied to a line headed by its entry. Chains listed by the source or under a name are the forms on record and can include a tag or linker. Residues count along the entry.
A1AT-M (the wild-type form of alpha-1 antitrypsin) (P01009, residues 25-418): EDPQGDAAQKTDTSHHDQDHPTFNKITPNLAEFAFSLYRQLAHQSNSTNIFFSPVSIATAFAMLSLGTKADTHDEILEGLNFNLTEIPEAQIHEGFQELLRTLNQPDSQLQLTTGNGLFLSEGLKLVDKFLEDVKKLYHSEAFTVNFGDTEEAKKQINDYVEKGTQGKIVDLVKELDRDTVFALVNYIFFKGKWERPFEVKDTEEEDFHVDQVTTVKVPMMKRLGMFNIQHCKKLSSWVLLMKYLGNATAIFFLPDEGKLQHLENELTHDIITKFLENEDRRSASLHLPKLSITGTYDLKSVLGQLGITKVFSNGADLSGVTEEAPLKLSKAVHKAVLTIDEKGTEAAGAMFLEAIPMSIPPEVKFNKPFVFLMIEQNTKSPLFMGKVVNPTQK
A1AT-Z (the disease-causing E342K variant of alpha-1 antitrypsin) (P01009, form named): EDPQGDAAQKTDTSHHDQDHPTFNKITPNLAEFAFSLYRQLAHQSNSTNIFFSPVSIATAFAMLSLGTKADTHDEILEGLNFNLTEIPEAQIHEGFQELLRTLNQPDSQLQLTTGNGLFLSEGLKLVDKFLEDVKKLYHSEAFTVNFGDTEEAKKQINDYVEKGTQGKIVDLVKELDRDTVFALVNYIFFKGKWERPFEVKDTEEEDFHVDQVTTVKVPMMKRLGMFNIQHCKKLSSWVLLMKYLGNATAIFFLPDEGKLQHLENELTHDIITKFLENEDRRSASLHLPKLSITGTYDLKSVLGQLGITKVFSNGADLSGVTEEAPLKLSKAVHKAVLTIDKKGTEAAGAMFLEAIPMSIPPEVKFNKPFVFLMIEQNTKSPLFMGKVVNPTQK

Target: T1, FLAG-tagged full-length FBG1 (UniProt Q9UK22)
T1 sequence: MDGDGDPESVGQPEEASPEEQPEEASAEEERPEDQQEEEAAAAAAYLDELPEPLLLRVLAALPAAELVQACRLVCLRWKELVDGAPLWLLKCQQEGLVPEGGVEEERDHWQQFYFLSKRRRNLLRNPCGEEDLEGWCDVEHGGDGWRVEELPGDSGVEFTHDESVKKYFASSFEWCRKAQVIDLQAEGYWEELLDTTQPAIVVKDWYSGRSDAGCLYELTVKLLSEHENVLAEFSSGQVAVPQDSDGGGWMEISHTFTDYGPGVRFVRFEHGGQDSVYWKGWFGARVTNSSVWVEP
Assay: co-IP; Hepa1-6 cells co-transfected with FLAG-FBG1 or FLAG-FBG1ΔN (or empty pCMV) and A1AT variants; lysed 48 h later in FLAG lysis buffer (50mM Tris pH 7.4, 150mM NaCl, 1mM EDTA, 1% Triton X-100); anti-FLAG M2 affinity gel, 4°C, 2 hours; eluted with 3xFLAG peptide; blot with anti-A1AT

| binding | Substance |
| --- | --- |
| binds weakly | A1AT-M (the wild-type form of alpha-1 antitrypsin) (from UniProt P01009 25-418) |
| binds | A1AT-Z (the disease-causing E342K variant of alpha-1 antitrypsin) (from UniProt P01009 25-418) |
